Experimental data: PubChem BioAssay AID1159601 (NIAID, 2016)
Screen: 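Genes whose loss changes TNF reporter induction by lipopeptide in human macrophage-like cells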 (primary screen). Cells: human THP-1 reporter cells differentiated with PMA into macrophage-like cells. Reagents: single siRNA against human genes. Timing: ligand added 4 hours before read-out; cells assayed 48 to 72 hours after siRNA transfection. Treatment: Pam3CSK4 (TLR2 ligand) for 4 hours; dose not given. Measured: 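TNF promoter dual-luciferase ratio measured 4 h after Pam3CSK4, converted to robust z-scores against negative controls and averaged across replicates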. Direction: TNF reporter z-score: higher = stronger TNF promoter reporter activity. Rule for the call: 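The depositor grades each siRNA by the size of its mean z-score in either direction, with steps at 1, 1.5, 2 and 2.5; active calls sit near -1.5 or below, or near 1.5 or above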. Calls: active = clear change (up or down); inactive = little change.
This is an unselected part of 756 reagents. 143 of all reagents (19%) count as active. 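Calls include both lowered and raised reporter signal; each row is a single siRNA, not a gene summary; Pam3CSK4 dose not stated.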 Reagents against one gene are numbered here. No sequences are given here. Not given: the amount of reagent.

no.	gene knocked down	siRNA no.	TNF reporter z-score, replicate mean	Outcome
1	CD180 (GeneID 4064)	1	-0.51	inactive
2	CD180 (GeneID 4064)	2	-0.456	inactive
3	CD180 (GeneID 4064)	3	-1.2	inactive
4	CD180 (GeneID 4064)	4	-0.565	inactive
5	CD180 (GeneID 4064)	5	-1.3	inactive
6	CD180 (GeneID 4064)	6	-0.186	inactive
7	UBE2N (GeneID 7334)	1	-0.795	inactive
8	UBE2N (GeneID 7334)	2	-1.63	active
9	UBE2N (GeneID 7334)	3	0.451	inactive
10	UBE2N (GeneID 7334)	4	-0.422	inactive
11	UBE2N (GeneID 7334)	5	-0.889	inactive
12	UBE2N (GeneID 7334)	6	1.28	inactive
13	TRAF6 (GeneID 7189)	1	-4.62	active
14	TRAF6 (GeneID 7189)	2	-4.22	active
15	TRAF6 (GeneID 7189)	3	-4.52	active
16	TRAF6 (GeneID 7189)	4	-2.61	active
17	TRAF6 (GeneID 7189)	5	-3.01	active
18	TRAF6 (GeneID 7189)	6	-2.01	active
19	ATF2 (GeneID 1386)	1	-2.34	active
20	ATF2 (GeneID 1386)	2	-0.538	inactive
21	ATF2 (GeneID 1386)	3	0.0846	inactive
22	ATF2 (GeneID 1386)	4	0.309	inactive
23	ATF2 (GeneID 1386)	5	0.241	inactive
24	ATF2 (GeneID 1386)	6	-1.97	active
25	LBP (GeneID 3929)	1	-0.676	inactive
26	LBP (GeneID 3929)	2	-0.321	inactive
27	LBP (GeneID 3929)	3	1.32	inactive
28	LBP (GeneID 3929)	4	-1.63	active
29	LBP (GeneID 3929)	5	0.0446	inactive
30	LBP (GeneID 3929)	6	0.485	inactive
31	MAPKAPK2 (GeneID 9261)	1	-1.03	inactive
32	MAPKAPK2 (GeneID 9261)	2	-0.506	inactive
33	MAPKAPK2 (GeneID 9261)	3	-0.615	inactive
34	MAPKAPK2 (GeneID 9261)	4	-0.473	inactive
35	MAPKAPK2 (GeneID 9261)	5	0.737	inactive
36	MAPKAPK2 (GeneID 9261)	6	-0.957	inactive
37	IRAK2 (GeneID 3656)	1	0.338	inactive
38	IRAK2 (GeneID 3656)	2	1.3	inactive
39	IRAK2 (GeneID 3656)	3	-0.295	inactive
40	IRAK2 (GeneID 3656)	4	-0.3	inactive
41	IRAK2 (GeneID 3656)	5	-0.374	inactive
42	IRAK2 (GeneID 3656)	6	-0.527	inactive
43	MAP2K7 (GeneID 5609)	1	-0.4	inactive
44	MAP2K7 (GeneID 5609)	2	-1.82	active
45	MAP2K7 (GeneID 5609)	3	-1.21	inactive
46	MAP2K7 (GeneID 5609)	4	-0.609	inactive
47	MAP2K7 (GeneID 5609)	5	-3.11	active
48	MAP2K7 (GeneID 5609)	6	-1.33	inactive
49	MAPK1 (GeneID 5594)	1	-0.0723	inactive
50	MAPK1 (GeneID 5594)	2	-0.399	inactive
51	MAPK1 (GeneID 5594)	3	-0.944	inactive
52	MAPK1 (GeneID 5594)	4	0.0907	inactive
53	MAPK1 (GeneID 5594)	5	-1.02	inactive
54	MAPK1 (GeneID 5594)	6	0.0179	inactive
55	MAP2K1 (GeneID 5604)	1	-0.662	inactive
56	MAP2K1 (GeneID 5604)	2	-0.662	inactive
57	MAP2K1 (GeneID 5604)	3	-1.49	inactive
58	MAP2K1 (GeneID 5604)	4	-0.25	inactive
59	MAP2K1 (GeneID 5604)	5	-0.141	inactive
60	MAP2K1 (GeneID 5604)	6	0.182	inactive
